Assay in all cases: co-IP; co-transfected HEK293 cells, total cell extract, IP with GFP antibody on protein A Sepharose, 20 mM Tris, 125 mM NaCl, 0.5% NP-40, pH 7.5, 2 h at 4 °C; western blot with Myc and GFP antibodies; in Fig. 4d cells released into S phase
A general note: In western blotting, separated proteins are transferred to a membrane and probed.

Assay [1] deals with T1, GFP-tagged Cdc6 truncate amino acids 1–179 (human) (UniProt Q99741).
T1 sequence: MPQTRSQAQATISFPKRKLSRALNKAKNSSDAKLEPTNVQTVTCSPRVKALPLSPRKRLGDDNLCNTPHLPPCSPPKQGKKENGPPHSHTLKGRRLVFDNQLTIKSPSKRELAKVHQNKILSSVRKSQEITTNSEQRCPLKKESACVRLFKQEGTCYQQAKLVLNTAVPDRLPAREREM

Assay [2] concerns the target T2, GFP-tagged Cdc6 truncate amino acids 179–407 (human) (UniProt Q99741).
T2 sequence: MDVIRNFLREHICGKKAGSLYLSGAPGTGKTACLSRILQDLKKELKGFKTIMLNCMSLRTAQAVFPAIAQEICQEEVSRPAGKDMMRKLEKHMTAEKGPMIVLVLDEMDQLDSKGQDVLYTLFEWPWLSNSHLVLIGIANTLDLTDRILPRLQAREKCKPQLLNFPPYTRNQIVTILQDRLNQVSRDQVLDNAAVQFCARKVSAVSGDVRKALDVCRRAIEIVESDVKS

In assay [3] the target is T3, GFP-tagged Cdc6 truncate amino acids 407–560 (human) (UniProt Q99741).
T3 sequence: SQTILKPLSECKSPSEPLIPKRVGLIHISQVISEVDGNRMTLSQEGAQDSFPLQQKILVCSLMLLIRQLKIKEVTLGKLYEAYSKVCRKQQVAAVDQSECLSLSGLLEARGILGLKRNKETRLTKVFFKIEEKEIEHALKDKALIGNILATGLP

The target of assay [4] is T4, GFP-tagged Cdc6 WT (human) (UniProt Q99741).
T4 sequence: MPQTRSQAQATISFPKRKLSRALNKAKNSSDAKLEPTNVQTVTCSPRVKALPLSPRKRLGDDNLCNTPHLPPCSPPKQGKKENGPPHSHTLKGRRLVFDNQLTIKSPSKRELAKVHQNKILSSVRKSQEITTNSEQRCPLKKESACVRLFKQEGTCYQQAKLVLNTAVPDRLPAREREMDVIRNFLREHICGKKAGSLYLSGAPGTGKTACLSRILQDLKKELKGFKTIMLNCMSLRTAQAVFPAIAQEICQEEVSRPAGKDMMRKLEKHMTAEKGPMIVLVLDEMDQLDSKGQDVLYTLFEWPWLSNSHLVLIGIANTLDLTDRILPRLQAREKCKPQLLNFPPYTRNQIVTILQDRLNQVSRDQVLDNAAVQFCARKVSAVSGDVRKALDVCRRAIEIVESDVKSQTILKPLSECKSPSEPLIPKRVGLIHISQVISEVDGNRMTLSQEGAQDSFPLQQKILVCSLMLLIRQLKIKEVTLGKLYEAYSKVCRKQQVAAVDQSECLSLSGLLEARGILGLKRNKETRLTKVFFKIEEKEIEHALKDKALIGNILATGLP

These are yes or no findings as the source states them, for the method shown. In cells and extracts the contact can be indirect. Some entries that bind do so weakly or less than the wild type. Sequences can lack the tags named with a protein.

B1: Myc-tagged Plk4 (enzyme, UniProt O00444 1-970)
chain: MATCIGEKIEDFKVGNLLGKGSFAGVYRAESIHTGLEVAIKMIDKKAMYKAGMVQRVQNEVKIHCQLKHPSILELYNYFEDSNYVYLVLEMCHNGEMNRYLKNRVKPFSENEARHFMHQIITGMLYLHSHGILHRDLTLSNLLLTRNMNIKIADFGLATQLKMPHEKHYTLCGTPNYISPEIATRSAHGLESDVWSLGCMFYTLLIGRPPFDTDTVKNTLNKVVLADYEMPSFLSIEAKDLIHQLLRRNPADRLSLSSVLDHPFMSRNSSTKSKDLGTVEDSIDSGHATISTAITASSSTSISGSLFDKRRLLIGQPLPNKMTVFPKNKSSTDFSSSGDGNSFYTQWGNQETSNSGRGRVIQDAEERPHSRYLRRAYSSDRSGTSNSQSQAKTYTMERCHSAEMLSVSKRSGGGENEERYSPTDNNANIFNFFKEKTSSSSGSFERPDNNQALSNHLCPGKTPFPFADPTPQTETVQQWFGNLQINAHLRKTTEYDSISPNRDFQGHPDLQKDTSKNAWTDTKVKKNSDASDNAHSVKQQNTMKYMTALHSKPEIIQQECVFGSDPLSEQSKTRGMEPPWGYQNRTLRSITSPLVAHRLKPIRQKTKKAVVSILDSEEVCVELVKEYASQEYVKEVLQISSDGNTITIYYPNGGRGFPLADRPPSPTDNISRYSFDNLPEKYWRKYQYASRFVQLVRSKSPKITYFTRYAKCILMENSPGADFEVWFYDGVKIHKTEDFIQVIEKTGKSYTLKSESEVNSLKEEIKMYMDHANEGHRICLALESIISEEERKTRSAPFFPIIIGRKPGSTSSPKALSPPPSVDSNYPTRERASFNRMVMHSAASPTQAPILNPSMVTNEGLGLTTTASGTDISSNSLKDCLPKSAQLLKSVFVKNVGWATQLTSGAVWVQFNDGSQLVVQAGVSSISYTSPNGQTTRYGENEKLPDYIKQKLQCLSSILLMFSNPTPNFH
Consider B1, for which the binding entry in assay [1] was “binds”; in assay [2], “binds”; in assay [3] it was “no binding”; in assay [4] it was “binds”.

(Values after paper PMC5414174, “DNA replication licensing factor Cdc6 and Plk4 kinase antagonistically regulate centrosome duplication via Sas-6” (Nature Communications, 2017).)
